# Values of other authors, collected in patent EP0378320A2, “Microbial transformation product” (Merck & Co., Inc., priority 1989, dated 1990).
# At least one structure is not confirmed: it was looked up by name or label, or the drawing left a doubt.
# Settings: reputed; EPO Publication No. 0184162; cited from earlier work
smiles,measurement,value
C=CC[C@@H]1/C=C(\C)C[C@H](C)C[C@H](OC)[C@H]2O[C@@](O)(C(=O)C(=O)N3CCCC[C@H]3C(=O)O[C@H](/C(C)=C/[C@@H]3CC[C@@H](O)[C@H](OC)C3)[C@H](C)[C@@H](O)CC1=O)[C@H](C)C[C@@H]2OC [FK-506],times more effective than cyclosporin,100 times
